Test results taken from PubChem BioAssay AID540276 (National Center for Advancing Translational Sciences (NCATS), 2011).
Among all 300,000 compounds or so, about 5,400 (1.8%) were called active. The inconclusive results got no clear call from the source; some entries with a clear call stand among them for comparison. The call rests on the fitted dose curve; tested in HEK293 cells. Where the call is inconclusive, the potency comes from a doubtful curve fit.

experiment: qHTS for inhibitors of binding or entry into cells for Marburg Virus; conditions: Marburg virus pseudotyped entry inhibition, cell reporter; activity change, negative = inhibition: at 37.8 µM (top of the series) unless noted
On the % scale 0 is the no-effect control and ±100 the full control effect; potency means the concentration at half of the fitted maximal effect.

Compound | Potency | activity change, negative = inhibition
CN1CCN(CC(O)(c2ccc(Cl)cc2)c2ccc(Cl)cc2)CC1 | inconclusive: 10 µM [inhibitor, partial curve, poor fit] | –
CC1(C)N=C(N)N=C(N)N1c1ccccc1 | inconclusive: 35.5 µM [inhibitor, single point] | –
O=S(=O)(NCc1ccccc1)c1ccc2c(c1)OCCO2 | – | inactive: -3.74%
CC(C(=O)NCC1CCCCC1)N(C)Cc1ccc(Cl)cc1 (centres undefined) | inconclusive: 12.6 µM [inhibitor, partial curve, poor fit] | –
CN1CCN(c2ccc([N+](=O)[O-])cc2/C=N/NC(=O)c2cccc([N+](=O)[O-])c2)CC1 | inconclusive: 0.259 µM [activator, full curve, poor fit] | –
CCOC(=O)c1ccc(NC(=O)C(CC)Sc2nnc3c4ccccc4n(C)c3n2)cc1 (centres undefined) | inconclusive: 11.2 µM [activator, partial curve] | –
O=C(Nc1cccc(C(F)(F)F)c1)/C(=C\c1ccco1)NC(=O)c1cccs1 | inconclusive: 0.562 µM [inhibitor, full curve, poor fit] | –
CCN(CC)c1ccc(NC(=O)c2cc3c(OC)cccc3[nH]2)cc1 | inconclusive: 35.5 µM [inhibitor, single point] | –
O=S1(=O)C=C(Sc2nc3ccccc3s2)c2ccccc21 | active: 3.66 µM | –
CC1(CC(=O)N/N=C/c2ccc(OCc3ccc(Cl)cc3Cl)cc2)OCCCO1 | inconclusive: 28.2 µM [inhibitor, single point] | –
CC1=NOC(=O)/C1=C\c1ccc(-c2ccc(Br)cc2)o1 | inconclusive: 35.5 µM [inhibitor, single point] | –
Cc1nc(SCC(=O)NC(C)(C)C)c2c(-c3cccs3)csc2n1 | inconclusive: 35.5 µM [inhibitor, single point] | –
CC1(C)NC(C)(C)/C(=C\c2cccs2)C(=O)C1=O | active: 12.6 µM | –
CC(=O)N1N=C(c2ccc(NS(C)(=O)=O)cc2)CC1c1ccc2nccnc2c1 (centres undefined) | inconclusive: 8.91 µM [inhibitor, partial curve, poor fit] | –
Cc1cc[n+](-c2ccccc2)c2ccccc12 | inconclusive: 7.08 µM [inhibitor, partial curve, poor fit] | –
O=C(Nc1ccc(-c2ccc3nncn3n2)cc1)C1CCCC1 | inconclusive: 11.2 µM [activator, partial curve, poor fit] | –
Cc1nc(SCC(=O)N2CCN(C(=O)c3cccs3)CC2)c2c(C)c(C)sc2n1 | inconclusive: 35.5 µM [inhibitor, single point] | –
O=C(/C=C/c1ccc(Cl)cc1)NC1CC2CCC1C2 (centres undefined) | inconclusive: 31.6 µM [inhibitor, single point] | –
Cc1ccc(C)c(N2CCN(C(=O)C(Cc3ccccc3)n3cccc3)CC2)c1 (centres undefined) | – | inactive: -4.61%
C/C(=N\NC(=O)CCc1c[nH]c2ccccc12)c1ccc([N+](=O)[O-])cc1 | inconclusive: 20 µM [inhibitor, partial curve, poor fit] | –
COc1ccc(NC(=O)Nc2c[nH]c(=O)[nH]c2=O)cc1 | – | inactive: 3.17% [at 46.1 µM]
COc1cc(/C=C2\SC(=S)N(Nc3ccccc3)C2=O)ccc1O | inconclusive: 18.4 µM [activator, single point] | –

Compound | Potency | activity change, negative = inhibition
FC(F)(F)C1CC(c2cccs2)Nc2ncnn21 (centres undefined) | inconclusive: 14.1 µM [activator, partial curve, poor fit] | –
COc1ccc(-c2nc(C#N)c(N3CCCCCC3)o2)cc1 | inconclusive: 29.1 µM [inhibitor, partial curve, poor fit] | –
Cc1c(Cl)ccc2c1NC(=O)[C@]21[C@@H]2C(=O)N(Cc3ccccc3)C(=O)[C@@H]2[C@@H]2CCCN21 | inconclusive: 15.8 µM [inhibitor, single point] | –
Cc1ccnc(NC(=O)c2cccc(S(=O)(=O)N3CCCc4ccccc43)c2)c1 | inconclusive: 22.4 µM [inhibitor, single point] | –
CCc1ccc(S(=O)(=O)c2cnc3ccc(OC)cc3c2N2CCCC(C)C2)cc1 (centres undefined) | inconclusive: 7.94 µM [inhibitor, partial curve, poor fit] | –
CCOc1ccc(CCNC(=O)Cc2ccc(S(=O)(=O)N3CCOCC3)s2)cc1OCC | – | inactive: -22.2%
Cc1ccc(C(C)C)c(OCCCNCc2cccnc2)c1 | inconclusive: 6.31 µM [inhibitor, partial curve, poor fit] | –
Nc1nc(=O)c2ccccc2s1 | inconclusive: 6.31 µM [inhibitor, partial curve, poor fit] | –
CC(=O)c1cc(-c2ccccc2)n(CCC(=O)NC2CCCCCCC2)c1C | – | inactive: -67.5%
CCOc1ccc(S(=O)(=O)NCCC(=O)N2CC(C)OC(C)C2)cc1 (centres undefined) | – | inactive: 2.5% [at 46.1 µM]
CCc1ccccc1NC(=O)CN(c1cccc(C)c1C)S(C)(=O)=O | inconclusive: 0.501 µM [inhibitor, full curve, poor fit] | –
C=CCOc1cccc(C2C(C(=O)c3ccco3)=C(O)C(=O)N2CCN(CC)CC)c1 (centres undefined) | inconclusive: 0.092 µM [inhibitor, full curve, poor fit] | –
S=c1[nH]nc(-c2cccc(Cl)c2)n1/N=C/c1ccco1 | inconclusive: 35.5 µM [activator, single point] | –
CCCN(Cc1cc2cc(OC)ccc2[nH]c1=O)C(=O)c1ccco1 | – | inactive: -5.77%
O=C1c2cccc3cccc(c23)C(=O)N1CC1CCN(CC(O)COc2ccc3ccccc3c2)CC1 (centres undefined) | – | inactive: -1.49%
COc1ccc(/C=N/NC(=O)c2nn(-c3ccc(C)c(C)c3)c(=O)c3ccccc23)cc1 | inconclusive: 25.1 µM [inhibitor, partial curve, poor fit] | –
O=C(OCC(=O)N1CCOCC1)c1cc(-c2ccccc2)nc2ccccc12 | inconclusive: 31.6 µM [activator, single point] | –
Cc1c(Cl)cccc1NC(=O)c1cccc(NC(=O)CCC(=O)O)c1 | inconclusive: 6.31 µM [activator, single point] | –
CC(C)NC(=O)c1cc(-c2ccc(Br)cc2)on1 | inconclusive: 4.11 µM [activator, single point] | –
Cc1nc(Oc2cccc(Cl)c2)c2oc3ccccc3c2n1 | inconclusive: 0.0651 µM [inhibitor, full curve, poor fit] | –
O=C(c1ccco1)N(Cc1cccc([N+](=O)[O-])c1)c1ccc(Br)cc1 | inconclusive: 3.16 µM [inhibitor, partial curve, poor fit] | –
CCCCNc1c([N+](=O)[O-])cc(C(=O)O)cc1[N+](=O)[O-] | – | inactive: 16.6%

Ordered by heavy-atom count (ascending): some entries from above.
Compound | Potency | activity change, negative = inhibition
COc1ccc(NC(=O)Nc2c[nH]c(=O)[nH]c2=O)cc1 | – | inactive: 3.17% [at 46.1 µM]
O=S(=O)(NCc1ccccc1)c1ccc2c(c1)OCCO2 | – | inactive: -3.74%
Cc1nc(Oc2cccc(Cl)c2)c2oc3ccccc3c2n1 | inconclusive: 0.0651 µM [inhibitor, full curve, poor fit] | –
COc1cc(/C=C2\SC(=S)N(Nc3ccccc3)C2=O)ccc1O | inconclusive: 18.4 µM [activator, single point] | –
Cc1c(Cl)cccc1NC(=O)c1cccc(NC(=O)CCC(=O)O)c1 | inconclusive: 6.31 µM [activator, single point] | –
CC(=O)N1N=C(c2ccc(NS(C)(=O)=O)cc2)CC1c1ccc2nccnc2c1 (centres undefined) | inconclusive: 8.91 µM [inhibitor, partial curve, poor fit] | –

(list continues)

Compound | Potency | activity change, negative = inhibition
O=C(c1cc([N+](=O)[O-])ccc1N1CCOCC1)N1CCN(c2ccc([N+](=O)[O-])cc2)CC1 | inconclusive: 11.2 µM [inhibitor, partial curve, poor fit] | –
COCCCNC(=O)CN(c1cccc(Cl)c1)S(C)(=O)=O | – | inactive: 9.69%
COc1ccc2cc(C#N)c(SCC(=O)N3CCCC3)nc2c1 | inconclusive: 35.5 µM [inhibitor, partial curve, poor fit] | –
COc1ccc(/C=C(\C#N)C(=O)OCC(=O)NCc2ccccc2Cl)cc1 | – | inactive: 9.71% [at 46.1 µM]
CCOC(=O)C1CCCN(S(=O)(=O)c2cc3c4c(c2)CCC(=O)N4CCC3)C1 (centres undefined) | inconclusive: 1.58 µM [inhibitor, partial curve, poor fit] | –
Cc1nn(C)c(C(=O)Nc2ccc(S(=O)(=O)NC34CC5CC(CC(C5)C3)C4)cc2)c1Br | inconclusive: 8.91 µM [inhibitor, partial curve, poor fit] | –
O=C(OCc1nnc(-c2ccccc2)o1)C1=COCCO1 | – | inactive: -2.33% [at 46.1 µM]
O=C(N/N=C/c1ccncc1)c1ccccc1[N+](=O)[O-] | inconclusive: 3.16 µM [activator, single point] | –
CCCCN(C(=S)NC(=O)c1cc(OC)c(OC)c(OC)c1)c1c(N)n(Cc2ccccc2)c(=O)[nH]c1=O | – | inactive: -7.12%
COc1cc(C2CC(=O)Nc3cc(C)c(C)cc32)cc(OC)c1OC (centres undefined) | – | inactive: -21.8%
CCn1c(SCC(=O)N/N=C(/C)c2ccncc2)nc2ccccc21 | inconclusive: 5.01 µM [activator, single point] | –
COc1ccc(-c2nn3c(-c4ccco4)nnc3s2)cc1OC | – | inactive: -15.3%
CCOc1cc(OCC)cc(C(=O)NCCCN2CCOCC2)c1 | inconclusive: 11.2 µM [activator, partial curve, poor fit] | –
COc1ccc(Cn2nnnc2CN(Cc2cc3ccc(C)cc3[nH]c2=O)C2CCCC2)cc1 | inconclusive: 29.1 µM [inhibitor, single point] | –
O=C1CCCC(=O)N1c1ccc(NCCOCCO)c([N+](=O)[O-])c1 | inconclusive: 3.16 µM [inhibitor, single point] | –
COc1ccc(NC(=O)C23CC4CC(C2)CC(n2cnc(Br)n2)(C4)C3)c(OC)c1 | inconclusive: 20 µM [inhibitor, single point] | –
O=[N+]([O-])c1ccccc1S(=O)(=O)N1CCN(C2CCN(Cc3ccccc3)CC2)CC1 | inconclusive: 1.26 µM [activator, single point] | –
O=C(CCN1CCN(c2ccccc2)CC1)N/N=C/c1ccccc1OC(F)F | inconclusive: 12.6 µM [inhibitor, single point] | –
Cc1cc(N/N=C/c2ccccc2F)nc(NCc2ccccc2)n1 | inconclusive: 0.355 µM [inhibitor, partial curve, poor fit] | –
COc1ccc(CCn2c(C3CCCCC3)nc3c(c(=O)c4ccccc4n3C)c2=O)cc1OC | inconclusive: 1.26 µM [inhibitor, full curve, poor fit] | –
